In article PMC3050841 one finds binding data, which are given here for 1 molecule.

The experiment has as its target α-actinin from rabbit skeletal muscle (rabbit). Put plainly: ELISA; ELISA-based method; no details given; both purified. (In general: In an ELISA, binding on a coated surface is turned into a signal by an enzyme label.)

No constants are given. Whether binding was seen depends on the method and setting. Binding calls can cover weak binding; strength is not graded here.

B1: HAMLET (Human Alpha-lactalbumin Made LEthal to Tumor cells) (protein, UniProt P00709 20-142)
chain: KQFTKCELSQLLKDIDGYGGIALPELICTMFHTSGYDTQAIVENNESTEYGLFQISNKLWCKSSQVPQSRNICDISCDKFLDDDITDDIMCAKKILDIKGIDYWLAHKALCTEKLEQWLCEKL
B1: the binding entry was “binds”.
